By UniProt entry, the sequences of proteins in these tests, tags left out. Residues count along the entry.
UniProt Q07021, residues 74-282: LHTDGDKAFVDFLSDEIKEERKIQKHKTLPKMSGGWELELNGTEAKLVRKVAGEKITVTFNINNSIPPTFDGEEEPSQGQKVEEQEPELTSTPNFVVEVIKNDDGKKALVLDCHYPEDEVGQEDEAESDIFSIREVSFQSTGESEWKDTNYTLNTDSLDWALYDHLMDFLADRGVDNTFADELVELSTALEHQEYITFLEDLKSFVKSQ
UniProt O00425: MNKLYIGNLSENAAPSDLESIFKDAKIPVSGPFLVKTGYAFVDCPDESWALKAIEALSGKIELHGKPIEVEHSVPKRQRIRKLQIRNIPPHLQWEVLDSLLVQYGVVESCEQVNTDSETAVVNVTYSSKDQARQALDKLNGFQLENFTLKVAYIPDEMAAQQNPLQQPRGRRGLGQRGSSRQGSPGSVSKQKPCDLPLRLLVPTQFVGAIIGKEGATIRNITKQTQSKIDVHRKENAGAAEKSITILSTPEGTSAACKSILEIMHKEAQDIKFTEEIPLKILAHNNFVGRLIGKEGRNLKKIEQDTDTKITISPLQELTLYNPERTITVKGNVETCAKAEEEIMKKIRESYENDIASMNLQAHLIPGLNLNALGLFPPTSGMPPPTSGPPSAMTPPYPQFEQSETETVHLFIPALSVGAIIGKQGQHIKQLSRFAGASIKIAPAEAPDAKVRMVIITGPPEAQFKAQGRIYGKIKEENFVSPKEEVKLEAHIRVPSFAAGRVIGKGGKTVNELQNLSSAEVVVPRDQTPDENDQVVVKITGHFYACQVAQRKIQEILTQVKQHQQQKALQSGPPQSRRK

According to PMC7372013:

Molecular target: Globular C1q receptor (human (endogenous in H929, U266, MM1S)) (UniProt Q07021)
Test: affinity purification with mass spectrometry; CoIP-MS: mouse anti-gC1qR antibody on protein A magnetic beads, total protein of H929, U266 and MM1S in RIPA weak lysis buffer, rotated at 4 °C overnight; proteins found in all three cell lines

With “insulin-like growth factor 2 mRNA binding protein 3 (from UniProt O00425 1-579)” the binding was “binds”.

Results are given in words; binding and its absence hold for the method and conditions named. In cells and extracts the contact can be indirect. These calls come from enrichment with a bait or labelling near it, and not all partners need be listed.
